Earlier results as cited in patent US9913836B2, “Anticholinergic neuroprotective composition and methods” (priority 2012, dated 2018).

System: Tg2576 mouse model of AD
Conditions: in vivo; cited from earlier work

COc1cc2c(cc1OC)C(=O)C(CC1CCN(Cc3ccccc3)CC1)C2 (racemic) [donepezil, (±)-2,3-dihydro-5,6-dimethoxy-2-[[1-(phenylmethyl)-4-piperidinyl]methyl]-1H-inden-1-one]
Brain tissue soluble A-beta 1-40 and 1-42, A-beta plaque number and burden: significantly reduced
